Results deposited as PubChem BioAssay AID1259254 (NCATS, 2017).
The whole screen tested about 59,000 reagents; below is a part drawn at random. In the full data, about 1,550 (2.6%) got an active call. 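G2 share is only a proxy for re-replication; each gene was hit by three separate siRNAs, and active genes were retested.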 Raw values are not corrected between plates. Reagents against one gene are numbered here. Not stated in the record: the amount of reagent.

- Screen: 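Gene knock-downs that lead to re-replication, shown by excess G2 DNA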 (primary screen)
- Cell system: human HCT116 colorectal cancer cells
- Reagent: single siRNA against human genes
- Timing: 3 days
- Measured: 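Nuclei stained with Hoechst and imaged; cell-cycle phase assigned by DNA content; G2 share scaled per plate, non-targeting siRNA 0%, GMNN siRNA 100%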
- Scale: G2 robust z-score and G2 cells, % of GMNN control: higher = more G2 cells, more excess DNA replication; raw share of cells in G2: higher = larger share of cells with G2 DNA content
- Call rule: 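An siRNA counts as active if its G2 robust z-score lies at least 5 MADs above the screen median; here such calls match roughly 38% of GMNN control or more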

The opening 4 entries as a preview:
no.	gene knocked down	reagent	G2 robust z-score	G2 cells, % of GMNN control	raw share of cells in G2 (%)	call
1	DUT (deoxyuridine triphosphatase)	1	-1.24	-5.74	2.93	inactive
2	DUT (deoxyuridine triphosphatase)	2	-0.763	-2.4	3.58	inactive
3	DUT (deoxyuridine triphosphatase)	3	-0.285	0.963	3.79	inactive
4	DDHD2 (DDHD domain containing 2)	1	-0.372	0.352	6.51	inactive

The list itself, from the start:
no.	gene knocked down	reagent	G2 robust z-score	G2 cells, % of GMNN control	raw share of cells in G2 (%)	call
1	DUT (deoxyuridine triphosphatase)	1	-1.24	-5.74	2.93	inactive
2	DUT (deoxyuridine triphosphatase)	2	-0.763	-2.4	3.58	inactive
3	DUT (deoxyuridine triphosphatase)	3	-0.285	0.963	3.79	inactive
4	DDHD2 (DDHD domain containing 2)	1	-0.372	0.352	6.51	inactive
5	DDHD2 (DDHD domain containing 2)	2	-0.791	-2.6	3.29	inactive
6	DDHD2 (DDHD domain containing 2)	3	1.07	10.5	7.46	inactive
7	LHFPL5 (LHFPL tetraspan subfamily member 5)	1	0.0437	3.27	4.77	inactive
8	LHFPL5 (LHFPL tetraspan subfamily member 5)	2	2.55	20.9	10.3	inactive
9	LHFPL5 (LHFPL tetraspan subfamily member 5)	3	-0.183	1.68	3.73	inactive
10	DNAJC19P9	1	0.782	8.47	6.86	inactive
11	DNAJC19P9	2	-0.595	-1.22	2.83	inactive
12	DNAJC19P9	3	0.531	6.71	5.1	inactive
13	GUCY2C (guanylate cyclase 2C)	1	6.48	48.6	24.2	active
14	GUCY2C (guanylate cyclase 2C)	2	-0.59	-1.18	3.77	inactive
15	GUCY2C (guanylate cyclase 2C)	3	0.593	7.14	7.64	inactive
16	MIS18A (MIS18 kinetochore protein A)	1	0.11	3.74	4.94	inactive
17	MIS18A (MIS18 kinetochore protein A)	2	0.792	8.54	7.87	inactive
18	MIS18A (MIS18 kinetochore protein A)	3	3.04	24.4	11.2	inactive
19	LOC644727 (retired record)	1	-0.52	-0.692	3.37	inactive
20	LOC644727 (retired record)	2	3.19	25.4	12.4	inactive
21	LOC644727 (retired record)	3	-0.384	0.267	3.22	inactive
22	FASTKD5 (FASTK mitochondrial RNA regulator 5)	1	3	24.1	15.1	inactive
23	FASTKD5 (FASTK mitochondrial RNA regulator 5)	2	1.48	13.4	10.6	inactive
24	FASTKD5 (FASTK mitochondrial RNA regulator 5)	3	0.329	5.28	4.09	inactive
25	SMARCA4	1	3.71	29	15.5	inactive
26	SMARCA4	2	-0.612	-1.34	4.09	inactive
27	SMARCA4	3	0.516	6.6	6.14	inactive
28	UGDH (UDP-glucose 6-dehydrogenase)	1	-0.207	1.51	4.82	inactive
29	UGDH (UDP-glucose 6-dehydrogenase)	2	-0.0954	2.3	5.23	inactive
30	UGDH (UDP-glucose 6-dehydrogenase)	3	6.32	47.4	25.6	active
31	TPCN2 (two pore segment channel 2)	1	-0.878	-3.21	3.12	inactive
32	TPCN2 (two pore segment channel 2)	2	0.34	5.36	7.24	inactive
33	TPCN2 (two pore segment channel 2)	3	-0.919	-3.5	3.6	inactive
34	FLJ41170 (retired record)	1	0.338	5.35	4.94	inactive
35	FLJ41170 (retired record)	2	1.77	15.5	9.59	inactive
36	FLJ41170 (retired record)	3	-0.854	-3.04	2.26	inactive
37	GADD45B (growth arrest and DNA damage inducible beta)	1	-0.275	1.03	3.73	inactive
38	GADD45B (growth arrest and DNA damage inducible beta)	2	2.35	19.5	13.3	inactive
39	GADD45B (growth arrest and DNA damage inducible beta)	3	0.871	9.1	7.81	inactive
40	RPS18P10 (ribosomal protein S18 pseudogene 10)	1	2.72	22.1	11.7	inactive
41	RPS18P10 (ribosomal protein S18 pseudogene 10)	2	0.454	6.16	6.29	inactive
42	RPS18P10 (ribosomal protein S18 pseudogene 10)	3	-0.215	1.46	3.79	inactive
43	TCERG1 (transcription elongation regulator 1)	1	-0.511	-0.627	3.32	inactive
44	TCERG1 (transcription elongation regulator 1)	2	0.723	8.05	9.57	inactive
45	TCERG1 (transcription elongation regulator 1)	3	2.31	19.2	11.4	inactive
46	PROP1 (PROP paired-like homeobox 1)	1	-0.0889	2.34	4.92	inactive
47	PROP1 (PROP paired-like homeobox 1)	2	-1.42	-7.04	2.56	inactive
48	PROP1 (PROP paired-like homeobox 1)	3	-0.442	-0.144	4.62	inactive
49	RASIP1 (Ras interacting protein 1)	1	0.469	6.27	5.85	inactive
50	RASIP1 (Ras interacting protein 1)	2	0.618	7.32	7.35	inactive
51	RASIP1 (Ras interacting protein 1)	3	0.633	7.42	5.65	inactive
52	CHURC1 (churchill domain containing 1)	1	0.0757	3.5	5.57	inactive
53	CHURC1 (churchill domain containing 1)	2	-0.156	1.87	3.59	inactive
54	CHURC1 (churchill domain containing 1)	3	1.09	10.6	6.3	inactive
55	LHX4 (LIM homeobox 4)	1	-0.819	-2.8	3.77	inactive
56	LHX4 (LIM homeobox 4)	2	0.0603	3.39	5.76	inactive
57	LHX4 (LIM homeobox 4)	3	2.92	23.5	16.6	inactive
58	UBE2O (ubiquitin conjugating enzyme E2 O)	1	-0.617	-1.37	3.73	inactive
59	UBE2O (ubiquitin conjugating enzyme E2 O)	2	-0.533	-0.785	4.07	inactive
60	UBE2O (ubiquitin conjugating enzyme E2 O)	3	3.08	24.6	15.9	inactive
61	EDIL3 (EGF like and discoidin domains 3)	1	2.98	23.9	11.5	inactive
62	EDIL3 (EGF like and discoidin domains 3)	2	-0.0611	2.54	7.12	inactive
63	EDIL3 (EGF like and discoidin domains 3)	3	0.212	4.46	5.21	inactive
64	GPR155 (G protein-coupled receptor 155)	1	1.26	11.9	10.1	inactive
65	GPR155 (G protein-coupled receptor 155)	2	-0.118	2.14	5.26	inactive
66	GPR155 (G protein-coupled receptor 155)	3	-0.158	1.86	3.84	inactive
67	CAMK1 (calcium/calmodulin dependent protein kinase I)	1	-0.385	0.258	5.67	inactive
68	CAMK1 (calcium/calmodulin dependent protein kinase I)	2	-0.313	0.767	5.47	inactive
69	CAMK1 (calcium/calmodulin dependent protein kinase I)	3	0.541	6.77	5.85	inactive
